{"sequences": {"note": "Amino acid sequences for entries named in this document (tags omitted). A change or cut given only in a name is not applied to a line headed by its entry.", "UniProt O94782": "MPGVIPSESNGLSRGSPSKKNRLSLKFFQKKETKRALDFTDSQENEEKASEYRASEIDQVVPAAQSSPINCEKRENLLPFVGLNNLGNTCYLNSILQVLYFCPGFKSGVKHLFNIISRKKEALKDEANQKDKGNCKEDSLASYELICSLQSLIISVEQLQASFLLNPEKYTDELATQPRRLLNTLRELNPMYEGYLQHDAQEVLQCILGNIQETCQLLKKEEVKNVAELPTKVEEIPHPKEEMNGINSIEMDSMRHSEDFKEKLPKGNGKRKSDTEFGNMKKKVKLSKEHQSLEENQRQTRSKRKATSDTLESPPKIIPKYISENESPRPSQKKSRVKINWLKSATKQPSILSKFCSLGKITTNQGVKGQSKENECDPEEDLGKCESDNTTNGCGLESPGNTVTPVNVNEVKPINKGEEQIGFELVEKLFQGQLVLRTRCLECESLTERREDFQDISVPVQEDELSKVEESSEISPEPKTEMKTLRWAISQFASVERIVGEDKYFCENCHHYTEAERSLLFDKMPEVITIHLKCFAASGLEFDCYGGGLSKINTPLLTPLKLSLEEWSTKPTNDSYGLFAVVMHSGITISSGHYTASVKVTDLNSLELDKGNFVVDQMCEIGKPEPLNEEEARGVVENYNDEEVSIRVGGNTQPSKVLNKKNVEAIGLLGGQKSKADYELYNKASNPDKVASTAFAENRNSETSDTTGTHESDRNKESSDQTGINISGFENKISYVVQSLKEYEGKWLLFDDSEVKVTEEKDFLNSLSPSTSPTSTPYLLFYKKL"}, "source": "PubChem BioAssay AID743255", "about": "(National Center for Advancing Translational Sciences (NCATS), 2014)", "note": "Screen size: about 390,000 compounds; about 910 (0.23%) were called active. Inconclusive means that the source gave no clear call. Such entries were picked first, then a sample of the others. Calls follow the shape of the dose curve; as a rule, active = well fitted inhibition curve with a large enough effect; inconclusive = small, poorly fitted or top-dose-only effect; inactive = no such curve, though single readings can be large or run the other way. Potencies of inconclusive entries are doubtful fits and often do not repeat. Potency is read from the fitted curve at half-maximal effect.", "data": [{"target": "Ubiquitin carboxyl-terminal hydrolase 1 (Homo sapiens) (UniProt O94782)", "test": "Inhibitors of USP1/UAF1: Primary Screen; also: nearly all actives have a fitted effect of over 60% in size", "details": "recombinant USP1/UAF1, Ub-Rhodamine cleavage fluorescence; series mostly up to 57.1 µM", "outline": "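1 nM enzyme complex + cpd, 15 min RT; start with Ub-Rho 150nM final; kinetic fluorescence ex 480/em 540, 6 reads q60 s. Buffer 50mM HEPES pH 7.8, 0.5mM EDTA, 0.1 mg/ml BSA, 1mM TCEP, 0.01% Tween-20.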", "values": [{"compound": "CCc1ccc(CNC(=O)Cn2nc(C)n3c(cc4cc(C)ccc43)c2=O)cc1", "Potency": "inactive"}, {"compound": "COC(=O)C1C(=O)C2=C(CC1C)NC(=O)CC2c1cccc(C)c1", "note": "(centres undefined)", "Potency": "inactive"}, {"compound": "O=C1NCCN1Cc1ccc(Cl)cc1", "Potency": "inconclusive: 39.8 µM [inhibitor, single point]"}, {"compound": "COC(=O)c1cc2oc3ccccc3c2n1CC(=O)Nc1ccc(Cl)cc1F", "Potency": "inactive"}, {"compound": "Cc1cc(C)n(/N=C/c2ccccc2)c(=O)c1C#N", "Potency": "inconclusive: 14.1 µM [inhibitor, partial curve, poor fit]"}, {"compound": "CCCS(=O)(=O)NCc1ccc2c(c1)cc(C)n2C", "Potency": "inconclusive: 15.8 µM [inhibitor, partial curve]"}, {"compound": "Fc1cccc2sc(Nc3nc4cc5c(cc4s3)OCCO5)nc12", "Potency": "inactive"}, {"compound": "CC1CCN(S(=O)(=O)c2ccc3c(c2)C(Cl)(Cl)C(=O)N3)CC1", "Potency": "inconclusive: 28.2 µM [inhibitor, partial curve]"}, {"compound": "O=C(CNC(=O)c1ccc(Br)o1)NNC(=O)c1ccccc1O", "Potency": "inconclusive: 31.6 µM [inhibitor, partial curve]"}, {"compound": "CCC(CO)Oc1cc(NCc2ccc(C)c(C)c2)c2ncn(C(C)C)c2c1", "note": "(centres undefined)", "Potency": "inconclusive: 44.7 µM [inhibitor, partial curve, poor fit]"}, {"compound": "O=C(COc1ccc(Cl)cc1)Nc1ccc2nc(SCC(=O)N3CCCC3)sc2c1", "Potency": "inconclusive: 44.7 µM [inhibitor, partial curve]"}, {"compound": "COc1ccc(CCNC(=O)c2ccc3c(c2)N(Cc2ccc(F)cc2)C(=O)CS3)cc1OC", "Potency": "inconclusive: 0.355 µM [inhibitor, full curve, poor fit]"}, {"compound": "C(=Nc1cccc2c(N=Cc3ccco3)cccc12)c1ccco1", "Potency": "inconclusive: 44.7 µM [inhibitor, partial curve]"}, {"compound": "CCOC(=O)N1CCN(S(=O)(=O)c2c[nH]c(C(=O)OC)c2)CC1", "Potency": "inconclusive: 0.316 µM [inhibitor, full curve, poor fit]"}, {"compound": "O=C(NCCc1ccccc1)C1CCC(CNS(=O)(=O)c2ccc(Cl)cc2)CC1", "note": "(centres undefined)", "Potency": "inconclusive: 7.08 µM [inhibitor, full curve]"}, {"compound": "Cc1ccc(C)c(N2CCN(C(=O)NCc3noc4ccc(C)cc34)CC2)c1", "Potency": "inconclusive: 5.62 µM [inhibitor, full curve, poor fit]"}, {"compound": "Nc1ncnc(N)c1N=Nc1ccccc1", "Potency": "inactive"}, {"compound": "CCSc1ccccc1C(=O)Nc1ccc(-c2nc3ccccc3s2)c(O)c1", "Potency": "inconclusive: 10 µM [inhibitor, full curve, poor fit]"}, {"compound": "Nc1ccc(C(=O)N/N=C\\c2ccc(OC(=O)c3ccccc3Cl)cc2)cc1", "Potency": "inactive"}, {"compound": "CN(CC(=O)Nc1ccccc1Cl)C(=O)COC(=O)/C=C/c1ccc(C(F)(F)F)cc1", "Potency": "inconclusive: 79.4 µM [inhibitor, partial curve, poor fit]"}, {"compound": "O=C(CN1CCC(Cc2ccccc2)CC1)NCCc1ccc(F)cc1", "Potency": "inactive"}, {"compound": "COc1cccc(-c2csc(N3CCN(C(=S)Nc4ccccc4OC)CC3)n2)c1", "Potency": "inconclusive: 1.41 µM [inhibitor, full curve, poor fit]"}, {"compound": "COc1ccc(-c2ccc3[nH]c4c(c3c2)CCN2C[C@H]3[C@H](C)ON(C)[C@H]3C[C@@H]42)cc1", "Potency": "inconclusive: 31.6 µM [inhibitor, partial curve, poor fit]"}, {"compound": "Cc1ccccc1CNC(=O)CN1C(=O)C2CCCCN2c2ccc(C(=O)N3CCCC3)cc21", "note": "(centres undefined)", "Potency": "inconclusive: 31.6 µM [inhibitor, partial curve]"}, {"compound": "Cc1ccc(C)c(Cn2c(=O)n(C(C)C)c(=O)c3oc4ccccc4c32)c1", "Potency": "inactive"}, {"compound": "Cc1cccc(-n2ncc3c(Nc4ccc(C)c(Cl)c4)ncnc32)c1", "Potency": "inconclusive: 44.7 µM [inhibitor, partial curve, poor fit]"}, {"compound": "CCC(NC(=O)c1cc(COc2c(F)cccc2F)on1)c1ccncc1", "note": "(centres undefined)", "Potency": "inactive"}, {"compound": "Cc1cc(=O)n(CC(C)C)c(O)c1C#N", "Potency": "inconclusive: 28.2 µM [inhibitor, partial curve]"}, {"compound": "CCOC(=O)c1cccc(NC(=O)C2Cc3ccccc3N2C(=O)c2ccccc2)c1", "note": "(centres undefined)", "Potency": "inactive"}, {"compound": "CC(C)(C)OC(=O)NCc1ccc(CNC(=O)c2[nH]cnc2C(=O)N[C@@H](Cc2ccccc2)C(=O)OC(C)(C)C)cc1", "Potency": "inconclusive: 1.78 µM [inhibitor, full curve]"}, {"compound": "O=C(NC(=S)Nc1ccccc1N1CCCC1)c1ccco1", "Potency": "inconclusive: 28.2 µM [inhibitor, partial curve]"}, {"compound": "O=C(NCc1cccnc1)C1CCN(S(=O)(=O)N2CCC3(CC2)OCCO3)CC1", "Potency": "inconclusive: 8.91 µM [inhibitor, partial curve]"}, {"compound": "Cn1c(C(=O)NCCc2c[nH]c3ccccc23)cc2sccc21", "Potency": "inconclusive: 35.5 µM [inhibitor, single point]"}, {"compound": "O=C(Nc1ccc(S(=O)(=O)N2CCOCC2)cc1)c1cc([N+](=O)[O-])ccc1Cl", "Potency": "inactive"}, {"compound": "COc1ccc(-c2coc3cc4oc(=O)cc(C)c4cc23)cc1F", "Potency": "inconclusive: 39.8 µM [inhibitor, partial curve, poor fit]"}, {"compound": "O=C(C[C@H]1C[C@H](C(=O)N2CCCCC2)[C@@]2(CCc3ccccc3)c3[nH]c4cc(-c5ccco5)ccc4c3CCN2C1=O)NCc1cccc(C(F)(F)F)c1", "Potency": "inconclusive: 50.1 µM [inhibitor, partial curve, poor fit]"}, {"compound": "CC(C)c1nn2c(=O)cc(COC(=O)c3ccc(NC(=O)C4CCCCC4)cc3)nc2s1", "Potency": "inconclusive: 11.2 µM [inhibitor, partial curve, poor fit]"}, {"compound": "COCc1cc(C)nc(SCC[N+](C)(C)CC(=O)Nc2cccc(C)c2)c1C#N", "Potency": "inconclusive: 2.51 µM [inhibitor, partial curve]"}, {"compound": "O=C(COC(=O)c1ccc([N+](=O)[O-])s1)NNC(=O)c1ccccc1", "Potency": "inconclusive: 31.6 µM [inhibitor, partial curve, poor fit]"}, {"compound": "COc1ccc2c(c1)Cc1sc(NC(C)=O)nc1-2", "Potency": "inconclusive: 25.1 µM [inhibitor, single point]"}, {"compound": "O=C(OCC(=O)N1CCN(C(=O)c2ccco2)CC1)c1cc(-c2ccc(Cl)c(Cl)c2Cl)nc2ccccc12", "Potency": "inconclusive: 17.8 µM [inhibitor, partial curve]"}, {"compound": "c1ccc(Sc2ccccn2)cc1", "Potency": "inactive"}, {"compound": "CCc1ccc(S(=O)(=O)Nc2cccc(-c3ccc(N4CCOCC4)nn3)c2)cc1", "Potency": "inconclusive: 5.01 µM [inhibitor, full curve, poor fit]"}, {"compound": "CCOc1cc(/C=C(\\C#N)C(=O)NCC2CCCO2)ccc1OCC(N)=O", "note": "(centres undefined)", "Potency": "inactive"}, {"compound": "CCOc1ccc(CNC(=O)c2ccc3c(c2)nc2n3CCOC2)cc1OC", "Potency": "inconclusive: 100 µM [inhibitor, partial curve, poor fit]"}, {"compound": "CN1C(=O)C(N=Nc2ccc([N+](=O)[O-])cc2)SC1=S", "note": "(centres undefined)", "Potency": "inactive"}, {"compound": "CC1(C)CC2CC(C)(CN2C(=O)c2cc(-c3ccc(F)cc3)on2)C1", "note": "(centres undefined)", "Potency": "inconclusive: 0.355 µM [inhibitor, full curve, poor fit]"}, {"compound": "CN(C)[C@@H](CO)c1nnc([C@H](CCC(=O)O)NC(=O)C2CCNCC2)o1", "Potency": "inconclusive: 89.1 µM [inhibitor, partial curve, poor fit]"}, {"compound": "C[C@@H]1CN([C@H](C)CO)C(=O)c2cc(NS(=O)(=O)c3ccc(F)cc3)ccc2O[C@@H]1CN(C)Cc1ccc(Cl)c(Cl)c1", "Potency": "inconclusive: 11.2 µM [inhibitor, partial curve]"}, {"compound": "CCCCC(=O)OCc1c(-c2ccccc2)ncc2ccccc12", "Potency": "inconclusive: 44.7 µM [inhibitor, partial curve]"}, {"compound": "CCOC(=O)C(=Cc1ccc(-c2ccsc2C(=O)OC)o1)C(=O)OCC", "Potency": "inconclusive: 15.8 µM [inhibitor, partial curve]"}, {"compound": "C=CCc1ccccc1OCC(O)CN1CCN(c2ccccc2OC)CC1", "note": "(centres undefined)", "Potency": "inconclusive: 0.141 µM [inhibitor, full curve, poor fit]"}, {"compound": "CN(C)c1ccc(C(=O)Nc2nnc(-c3ccc(Cl)cc3)o2)cc1", "Potency": "inconclusive: 2 µM [inhibitor, partial curve]"}, {"compound": "O=C(CCCN1C(=O)S/C(=C/C=C/c2ccccc2)C1=O)Nc1ccc(C(=O)O)cc1", "Potency": "inactive"}, {"compound": "Nc1ccc(Cl)cc1C(=O)OCC(=O)NC1CCS(=O)(=O)C1", "note": "(centres undefined)", "Potency": "inactive"}, {"compound": "CCCN1Cc2cccc(C(=O)Nc3cccc(C(=O)OCC)c3)c2C1=O", "Potency": "inactive"}, {"compound": "CCC1Oc2ccc(Cl)cc2N(CC(=O)NCCc2ccc(Cl)cc2)C1=O", "note": "(centres undefined)", "Potency": "inconclusive: 0.891 µM [inhibitor, full curve, poor fit]"}, {"compound": "Cc1ccc(OCC(=O)Nc2ccccc2OCc2cc(=O)n3ccccc3n2)cc1C", "Potency": "inconclusive: 31.6 µM [inhibitor, single point]"}, {"compound": "COc1ccc(-c2nc3ccccc3s2)cc1NC(=O)c1ccc(F)cc1", "Potency": "inactive"}, {"compound": "N[C@@H](C(=O)N[C@@H]1C(=O)N2C(C(=O)O)=C(Cl)CS[C@H]12)c1ccccc1", "Potency": "inactive"}, {"compound": "CCN1CCN(C(=S)c2ccc(OCC(=O)NCc3ccccc3)cc2)CC1", "Potency": "inactive"}, {"compound": "C=C1c2cccc(O)c2C(=O)C2C(=O)[C@]3(O)C(=O)C(C(N)=O)C(=O)[C@@H](N(C)C)[C@@H]3[C@@H](O)[C@H]12", "note": "(some centres undefined)", "Potency": "inconclusive: 56.2 µM [inhibitor, partial curve, poor fit]"}, {"compound": "O=C(COc1ccccc1F)Nc1cc(S(=O)(=O)Nc2cccc(Cl)c2)ccc1O", "Potency": "inactive"}, {"compound": "O=C(NC1CCCCC1)C(c1ccc2ncccc2c1)N(Cc1ccc(F)cc1)C(=O)c1cccs1", "note": "(centres undefined)", "Potency": "inconclusive: 44.7 µM [inhibitor, single point]"}]}]}
